In US20200377510A1, “DERIVATIVES OF PIPERLONGUMINE AND USES THEREOF” (Auransa Inc., priority 2019, published 2020):

System: collagen-induced arthritis
Assay: Collagen-induced arthritis in female Lewis rats
Format: in vivo
Details: 3 mg/kg QD PO, vs vehicle control rats
Method: Animals were anesthetized with isoflurane and given intradermal injections of 400 μl (2×200 μl) of Porcine Type II collagen in Freund's incomplete adjuvant spread equally over two sites on the back on study days 0. On day 7, a boost injection was given; intradermal injections of 100 μl of Porcine Type II collagen in Freund's incomplete adjuvant. Collagen was prepared by making a 2 mg/ml solution in 0.01 N Acetic acid. Equal volumes of collagen and Freund's incomplete adjuvant were emulsified by hand mixing with the syringes partially submerged in ice water for 10 minutes, at which point a bead of this material will hold its form when placed in water. On study day 6, the animals were randomized by body weight into treatment groups and dosing was initiated. […] Efficacy evaluation was based on animal body weights, ankle caliper measurements, and final hind paw weights. Terminal serum was analyzed for anti-type II collagen antibody (IgG) concentrations. The rats were weighed on day 6 for randomization, on day 9, and daily on days 11 through 17. Caliper measurements of right and left ankle diameters were taken on study days 9 (baseline) and 11 through 17. Ankle caliper measurements were made with a digital micrometer ([…]; Fowler & NSK). Baseline measurements were taken using one ankle with values rounded to one thousandth of an inch. […]

## CCS(=O)(=O)N1CC(CC#N)(n2cc(-c3ncnc4[nH]ccc34)cn2)C1 [baricitinib]
  inhibition of body weight loss: 42%
